Data as given in article PMC4047164 (Biochimica et biophysica acta, 2014).
Several values for one entry are separate records, joined by “and”; a condition that tells them apart may be missing. Identical values can stand only once.

The chains behind the UniProt entries cited, without tags or fusion partners. Where a name states a change or a piece, a line headed by the entry shows the natural chain unless it says otherwise.
UniProt Q2YWP9: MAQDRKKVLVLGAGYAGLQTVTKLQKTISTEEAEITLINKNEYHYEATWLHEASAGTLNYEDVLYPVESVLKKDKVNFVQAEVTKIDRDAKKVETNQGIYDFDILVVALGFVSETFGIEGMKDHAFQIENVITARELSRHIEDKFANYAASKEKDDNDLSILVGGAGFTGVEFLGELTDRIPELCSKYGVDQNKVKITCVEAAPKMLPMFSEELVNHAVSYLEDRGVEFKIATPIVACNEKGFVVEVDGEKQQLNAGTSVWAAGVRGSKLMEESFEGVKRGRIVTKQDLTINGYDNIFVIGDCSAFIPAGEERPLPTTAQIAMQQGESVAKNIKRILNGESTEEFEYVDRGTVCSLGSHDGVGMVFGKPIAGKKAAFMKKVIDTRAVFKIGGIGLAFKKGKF
UniProt Q2FZW0: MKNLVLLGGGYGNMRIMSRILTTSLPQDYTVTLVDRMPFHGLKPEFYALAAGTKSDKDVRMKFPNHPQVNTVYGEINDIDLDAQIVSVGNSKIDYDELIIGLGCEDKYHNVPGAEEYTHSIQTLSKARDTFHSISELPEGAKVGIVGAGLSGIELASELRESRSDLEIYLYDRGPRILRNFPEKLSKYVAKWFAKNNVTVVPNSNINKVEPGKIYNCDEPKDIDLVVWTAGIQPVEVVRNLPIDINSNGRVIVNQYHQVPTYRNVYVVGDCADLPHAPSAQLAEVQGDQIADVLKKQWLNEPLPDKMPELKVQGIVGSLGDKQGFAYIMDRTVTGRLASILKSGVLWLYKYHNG

Columns and labels:
[1] = target: NdhC (Staphylococcus aureus, UniProt Q2YWP9); assay: biochemical; set-up: species or system S. aureus; details: IC50, NdhC + Q8
[2] = test system: S. aureus membranes; assay: NADH-driven respiration; assay type: biochemical; details: read-out: IC50, respiration of S. aureus membranes
[3] = target: NdhF (Staphylococcus aureus, UniProt Q2FZW0); assay: biochemical; details: IC50, NdhF + Q8

CSc1ccc2c(c1)N(CCC1CCCCN1C)c1ccccc1S2 (stereo not drawn) [TZ, Thioridazine]
IC50 [1]: 8 µM and 7.9 µM | IC50 [2]: 7.4 ± 1 µM | IC50 [3]: 14 µM and 13.5 µM
